Experiment [1] concerns the target T1, LNX1, endogenous in HT-29 cells (human (endogenous in HT-29)) (UniProt Q8TBB1).
T1 sequence: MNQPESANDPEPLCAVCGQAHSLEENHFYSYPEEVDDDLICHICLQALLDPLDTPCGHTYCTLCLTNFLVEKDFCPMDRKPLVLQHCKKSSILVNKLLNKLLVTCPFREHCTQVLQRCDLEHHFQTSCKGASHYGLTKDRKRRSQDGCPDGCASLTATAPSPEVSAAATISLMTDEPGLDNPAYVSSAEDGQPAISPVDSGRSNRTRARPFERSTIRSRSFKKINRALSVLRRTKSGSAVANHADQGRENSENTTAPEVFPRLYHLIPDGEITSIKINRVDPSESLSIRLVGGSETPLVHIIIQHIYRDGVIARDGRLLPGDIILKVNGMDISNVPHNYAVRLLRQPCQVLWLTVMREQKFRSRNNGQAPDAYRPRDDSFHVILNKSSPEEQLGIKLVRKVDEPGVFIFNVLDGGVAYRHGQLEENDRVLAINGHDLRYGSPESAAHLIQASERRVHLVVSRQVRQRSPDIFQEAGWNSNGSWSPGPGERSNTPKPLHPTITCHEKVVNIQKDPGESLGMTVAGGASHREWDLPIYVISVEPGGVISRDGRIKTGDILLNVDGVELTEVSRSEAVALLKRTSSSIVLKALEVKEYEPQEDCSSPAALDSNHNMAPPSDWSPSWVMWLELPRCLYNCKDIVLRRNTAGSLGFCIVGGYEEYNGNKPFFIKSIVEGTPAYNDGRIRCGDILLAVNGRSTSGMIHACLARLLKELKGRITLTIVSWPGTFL
The experiment is described as follows: co-IP; endogenous proteins; HT-29 cell lysates with the indicated antibodies and protein-A/G beads overnight; bound proteins by immunoblot.

In experiment [2] the target is T2, SuFu, endogenous in HT-29 cells (human (endogenous in HT-29)) (UniProt Q9UMX1).
T2 sequence: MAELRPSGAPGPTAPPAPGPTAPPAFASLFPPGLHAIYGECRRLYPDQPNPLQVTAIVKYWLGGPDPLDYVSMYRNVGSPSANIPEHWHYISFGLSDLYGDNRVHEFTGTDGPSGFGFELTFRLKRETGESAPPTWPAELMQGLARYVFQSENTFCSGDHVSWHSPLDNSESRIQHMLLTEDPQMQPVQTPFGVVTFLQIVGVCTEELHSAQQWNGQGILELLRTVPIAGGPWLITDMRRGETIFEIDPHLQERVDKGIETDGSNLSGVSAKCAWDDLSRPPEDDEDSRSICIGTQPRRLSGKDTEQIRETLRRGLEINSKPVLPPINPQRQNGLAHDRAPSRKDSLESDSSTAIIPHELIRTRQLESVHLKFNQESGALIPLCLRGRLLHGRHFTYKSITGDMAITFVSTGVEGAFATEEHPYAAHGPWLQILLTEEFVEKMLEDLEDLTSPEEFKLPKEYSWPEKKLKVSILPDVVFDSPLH
Described as above.

The target of experiment [3] is T3, SuFu fragment aa110–174 (human) (UniProt Q9UMX1).
T3 sequence: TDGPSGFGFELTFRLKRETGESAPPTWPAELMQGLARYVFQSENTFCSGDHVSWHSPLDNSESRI
As to the kind of experiment: pull-down; SNEP1 pulled down by the aa110–174 fragment of SuFu (Fig. S3G); format not shown.

Experiment [4] deals with T4, Flag-LNX1 (UniProt Q8TBB1).
T4 sequence: T1 sequence
The experiment is described as follows: co-IP; HEK-293T cells transfected with GFP-SNEP1 and Flag-SuFu or Flag-LNX1 for 48 h; immunoprecipitation and immunoblot. (In general: Immunoblotting shows a protein as a band on a membrane.)

The target in experiment [5] is T5, Flag-SuFu (human) (UniProt Q9UMX1).
T5 sequence: T2 sequence
The description is as above.

Experiment [6] concerns the target T6, GST-SNEP1 (human) (UniProt Q8TAI1).
T6 sequence: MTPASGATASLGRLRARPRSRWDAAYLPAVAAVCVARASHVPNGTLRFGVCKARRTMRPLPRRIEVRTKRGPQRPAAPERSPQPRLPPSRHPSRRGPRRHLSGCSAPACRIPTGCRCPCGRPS
The experiment is described as follows: pull-down; GST-SNEP1 from E. coli on glutathione-Sepharose 4B beads, incubated with lysates of transfected HEK-293T cells; bound proteins by immunoblot; only the target purified.

These are yes or no findings as the source states them, for the method shown. Binding seen in cells or lysates may run through a third protein. Some binding calls cover weakened binding; strength is not graded here. For part of these data: Where a sequence is shown, tags or fusion partners need not be part of it.

B1: SNEP1, endogenous in HT-29 cells (protein, UniProt Q8TAI1 1-123)
chain: T6 sequence
B1: the binding result in experiment [1] and in experiment [2] was “binds” throughout.

B2: SNEP1 (construct of the domain-mapping experiments, Figs. S3E–H and S4A–D, not told) (protein, UniProt Q8TAI1 1-123)
chain: T6 sequence
In the case of B2, the binding entry in experiment [3] is given as “binds”.

B3: GFP-SNEP1 (protein, UniProt Q8TAI1 1-123)
chain: T6 sequence
Consider B3, for which the binding entry in experiment [4] and in experiment [5] was “binds” throughout.

B4: Flag-LNX1 (enzyme, UniProt Q8TBB1 1-728)
chain: T1 sequence
B4: in experiment [6], the binding entry is “binds”.

Values taken from paper PMC7896051.
